Assay results from patent US20110039845A1, “2-AMINOQUINAZOLINE DERIVATIVE” (KYOWA HAKKO KIRIN CO., LTD., priority 2008, published 2011).
Some of these results come from one statement about several compounds together.

The chains behind the UniProt entries cited, without tags or fusion partners. Residues count along the entry.
UniProt Q02763, 771-1124: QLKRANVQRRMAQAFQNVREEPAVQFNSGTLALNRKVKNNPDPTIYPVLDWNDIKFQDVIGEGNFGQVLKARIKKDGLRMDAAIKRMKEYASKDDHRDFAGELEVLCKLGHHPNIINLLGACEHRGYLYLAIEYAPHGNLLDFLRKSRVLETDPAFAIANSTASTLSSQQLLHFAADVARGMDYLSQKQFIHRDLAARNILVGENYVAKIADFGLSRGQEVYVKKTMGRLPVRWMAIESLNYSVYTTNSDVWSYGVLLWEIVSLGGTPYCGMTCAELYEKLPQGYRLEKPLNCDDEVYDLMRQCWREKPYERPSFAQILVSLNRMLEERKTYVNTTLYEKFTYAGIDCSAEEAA
UniProt P35968, 790-1356 limits assumed: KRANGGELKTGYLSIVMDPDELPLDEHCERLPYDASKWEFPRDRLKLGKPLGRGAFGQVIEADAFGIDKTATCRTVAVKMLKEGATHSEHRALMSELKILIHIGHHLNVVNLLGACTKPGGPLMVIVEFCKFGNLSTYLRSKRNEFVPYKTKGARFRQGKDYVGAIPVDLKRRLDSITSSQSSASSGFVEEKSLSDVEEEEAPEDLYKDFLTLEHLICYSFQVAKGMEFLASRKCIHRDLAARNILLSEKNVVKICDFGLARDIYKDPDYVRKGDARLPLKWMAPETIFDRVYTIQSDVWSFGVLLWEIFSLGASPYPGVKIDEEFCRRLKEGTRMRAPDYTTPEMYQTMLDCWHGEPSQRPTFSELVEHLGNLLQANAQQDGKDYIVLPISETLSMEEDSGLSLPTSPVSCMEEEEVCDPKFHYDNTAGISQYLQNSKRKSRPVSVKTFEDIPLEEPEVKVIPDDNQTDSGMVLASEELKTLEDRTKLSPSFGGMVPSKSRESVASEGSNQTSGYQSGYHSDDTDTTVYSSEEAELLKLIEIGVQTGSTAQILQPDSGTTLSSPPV

Key:
human Tie-2 = target: T1, human Tie-2 (Homo sapiens, UniProt Q02763); experiment: Tie-2 enzyme inhibitory activity (DELFIA time-resolved fluorescence kinase assay); type: biochemical; details: functional domain of human Tie-2, 50 μmol/L ATP, 30° C. 40 minutes
T1 construct: Functional domain of human Tie-2 (771-1124 end amino acid); purchased Carna Biosicence Inc. 08-285

human KDR = target: T2, human KDR (Homo sapiens, UniProt P35968); experiment: KDR enzyme inhibitory activity (DELFIA time-resolved fluorescence kinase assay); type: biochemical; details: selectivity for Tie-2 kinase over KDR
T2 construct: functional domain of human KDR (amino acid 790-end); purchased Upstate Inc. 14-630

IC50 (human Tie-2) | ratio of KDR IC50/Tie-2 IC50 (human KDR) | SMILES
≤ 20 nM | ≥ 20 | Cc1ccc(C(=O)Nc2cc(C(F)(F)F)ccc2OC2CCN(C)CC2)cc1-c1cc2cnc(N)nc2c(-c2ccccn2)c1O [Compound 60, 2-Amino-7-hydroxy-6-{2-methyl-5-N-[2-(1-methylpiperidin-4-yl)oxy-5-trifluoromethylphenyl]carbamoylphenyl}-8-(2-pyridyl)quinazoline]
≤ 20 nM | ≥ 20 | Cc1ccc(C(=O)Nc2cccc(C(F)(F)F)c2)cc1-c1cc2cnc(NC(C)C)nc2c(-c2ccccn2)c1O [Compound 62, 7-Hydroxy-2-isopropylamino-6-[2-methyl-5-N-(3-trifluoromethylphenyl)carbamoylphenyl]-8-(2-pyridyl)quinazoline]
≤ 20 nM | ≥ 20 | COc1c(-c2cc(C(=O)Nc3cccc(C(F)(F)F)c3)ccc2C)cc2cnc(NC3CCOCC3)nc2c1-c1ccccn1 [Compound 69, 7-Methoxy-6-[2-methyl-5-N-(3-trifluoromethylphenyl)carbamoylphenyl]-8-(2-pyridyl)-2-(4-tetrahydropyranylamino)quinazoline]
≤ 20 nM | ≥ 20 | COc1c(-c2cc(C(=O)Nc3cccc(C(F)(F)F)c3)ccc2C)cc2cnc(NCCN3CCOCC3)nc2c1-c1cnn(C)c1 [Compound 75, 7-Methoxy-8-(1-methyl-1H-pyrazol-4-yl)-6-[2-methyl-5-N-(3-trifluoromethylphenyl)carbamoylphenyl]-2-[2-(morpholino)ethylamino]quinazoline]
≤ 20 nM | ≥ 20 | Cc1ccc(C(=O)Nc2cccc(C(F)(F)F)c2)cc1-c1cc2cnc(N)nc2c(-c2cnccn2)c1O [Compound 78, 2-Amino-7-hydroxy-6-[2-methyl-5-N-(3-trifluoromethylphenyl)carbamoylphenyl]-8-(pyrazin-2-yl)quinazoline]
≤ 20 nM | ≥ 20 | COc1c(-c2cc(C(=O)Nc3cc(-n4cnc(C)c4)cc(C(F)(F)F)c3)ccc2C)cc2cnc(N)nc2c1-c1cnn(C)c1 [Compound 79, 2-Amino-7-methoxy-6-{2-methyl-5-N-[3-(4-methyl-1H-imidazol-1-yl)-5-trifluoromethylphenyl]carbamoylphenyl}-8-(1-methyl-1H-pyrazol-4-yl)quinazoline]
≤ 20 nM | ≥ 20 | COc1c(-c2cc(C(=O)Nc3cc(C(F)(F)F)ccc3N3CCCCC3)ccc2C)cc2cnc(N)nc2c1-c1cnn(C)c1 [Compound 98, 2-Amino-7-methoxy-6-[2-methyl-5-N-(2-piperidino-5-trifluoromethylphenyl)carbamoylphenyl]-8-(1-methyl-1H-pyrazol-4-yl)quinazoline]
≤ 20 nM | ≥ 20 | Cc1ccc(C(=O)Nc2cccc(C(F)(F)F)c2)cc1-c1cc2cnc(N)nc2c(-c2ccc(N3CCOCC3)cc2)c1O [Compound 100, 2-Amino-7-hydroxy-6-[2-methyl-5-N-(3-trifluoromethylphenyl)carbamoylphenyl]-8-(4-morpholinophenyl) quinazoline]
≤ 20 nM | ≥ 20 | Cc1ccc(C(=O)Nc2cc(C(F)(F)F)ccc2N2CCN(C)CC2)cc1-c1cc2cnc(N)nc2c(-c2ccc(F)nc2)c1O [Compound 105, 2-Amino-8-(2-fluoropyridin-5-yl)-7-hydroxy-6-{2-methyl-5-N-[2-(4-methylpiperazin-1-yl)-5-trifluoromethylphenyl]carbamoylphenyl}quinazoline]
≤ 20 nM | ≥ 20 | Cc1ccc(NC(=O)c2cccc(C(F)(F)F)c2)cc1-c1cc2cnc(N)nc2c(-c2ccc(F)nc2)c1O [Compound 110, 2-Amino-8-(2-fluoropyridin-5-yl)-7-hydroxy-6-[2-methyl-5-(3-trifluoromethylbenzamide)phenyl]quinazoline]
≤ 20 nM | ≥ 20 | Cc1ccc(C(=O)Nc2cccc(C(F)(F)F)c2)cc1-c1cc2cnc(N)nc2c(-c2ccnc(N3CCN(C)CC3)c2)c1O [Compound 111, 2-Amino-7-hydroxy-8-[2-(4-methylpiperazin-1-yl)pyridin-4-yl]-6-[2-methyl-5-N-(3-trifluoromethylphenyl)carbamoylphenyl]quinazoline]
≤ 20 nM | ≥ 20 | Cc1ccc(C(=O)Nc2cc(C(F)(F)F)ccc2N2CCOCC2)cc1-c1cc2cnc(N)nc2c(-c2ccc(F)nc2)c1O [Compound 114, 2-Amino-8-(2-fluoropyridin-5-yl)-7-hydroxy-6-[2-methyl-5-N-(2-morpholino-5-trifluoromethylphenyl)carbamoylphenyl]quinazoline]
≤ 20 nM | ≥ 20 | Cc1ccc(NC(=O)c2cccc(C(F)(F)F)c2)cc1-c1cc2cnc(N)nc2c(-c2cnn(C)c2)c1O [Compound 126, 2-Amino-7-hydroxy-8-(1-methyl-1H-pyrazol-4-yl)-6-[2-methyl-5-(3-trifluoromethylbenzamide)phenyl]quinazoline]
≤ 20 nM | ≥ 20 | COc1c(-c2cc(C(=O)Nc3cccc(C(F)(F)F)c3)ccc2C)cc2cnc(N)nc2c1-c1ccc2[nH]ccc2c1 [Compound 128, 2-Amino-8-(indol-5-yl)-7-methoxy-6-[2-methyl-5-N-(3-trifluoromethylphenyl)carbamoylphenyl]quinazoline]
≤ 20 nM | ≥ 20 | Cc1ccc(C(=O)Nc2cccc(C(F)(F)F)c2)cc1-c1cc2cnc(N)nc2c(-c2ccnc(N3CCC(O)CC3)c2)c1O [Compound 134, 2-Amino-7-hydroxy-8,2-[(4-hydroxypipericlin-1-yl)pyridin-4-yl]-6-[2-methyl-5-N-(3-trifluoromethylphenyl)carbamoylphenyl]quinazoline]
≤ 20 nM | ≥ 20 | COc1c(-c2cc(C(=O)Nc3cccc(C(F)(F)F)c3)ccc2C)cc2cnc(NC(=O)C3CC3)nc2c1-c1cnn(C)c1 [Compound 144, 2-Cyclopropylcarbonylamino-7-methoxy-8-(1-methyl-1H-pyrazol-4-yl)-6-[2-methyl-5-N-(3-trifluoromethylphenyl)carbamoylphenyl]quinazoline]
≤ 20 nM | ≥ 20 | Cc1ccc(C(=O)Nc2cccc(C(F)(F)F)c2)cc1-c1cc2cnc(N)nc2c(-c2ccnc(-n3cccn3)c2)c1O [Compound 148, 2-Amino-7-hydroxy-6-[2-methyl-5-N-(3-trifluoromethylphenyl)carbamoylphenyl]-8-[2-(1H-pyrazol-1-yl)pyridin-4-yl]quinazoline]
≤ 20 nM | ≥ 20 | CC(=O)Nc1ncc2cc(-c3cc(C(=O)Nc4cccc(C(F)(F)F)c4)ccc3C)c(O)c(-c3cnn(C)c3)c2n1 [Compound 150, 2-Acetylamino-7-hydroxy-8-(1-methyl-1H-pyrazol-4-yl)-6-[2-methyl-5-N-(3-trifluoromethylphenyl)carbamoylphenyl]quinazoline]
≤ 20 nM | ≥ 20 | Cc1ccc(C(=O)Nc2cccc(C(F)(F)F)c2)cc1-c1cc2cnc(N)nc2c(-c2ccnc(-n3cncn3)c2)c1O [Compound 158, 2-Amino-7-hydroxy-6-[2-methyl-5-N-(3-trifluoromethylphenyl)carbamoylphenyl]-8-[2-(1H-1,2,4-triazol-1-yl)pyridin-4-yl]quinazoline]
≤ 20 nM | ≥ 20 | Cc1ccc(C(=O)Nc2cccc(C(F)(F)F)c2)cc1-c1cc2cnc(N)nc2c(-c2ccc(-n3cncn3)nc2)c1O [Compound 163, 2-Amino-7-hydroxy-6-[2-methyl-5-N-(3-trifluoromethylphenyl)carbamoylphenyl]-8-[2-(1H-1,2,4-triazol-1-yl)pyridin-5-yl]quinazoline]
≤ 20 nM | ≥ 20 | Cc1ccc(C(=O)Nc2cccc(C(F)(F)F)c2)cc1-c1cc2cnc(N)nc2c(-c2ncco2)c1O [Compound 173, 2-Amino-7-hydroxy-6-[2-methyl-5-N-(3-trifluoromethylphenyl)carbamoylphenyl]-8-(oxazol-2-yl)quinazoline]
≤ 20 nM | ≥ 20 | Cc1ccc(C(=O)Nc2cccc(C(F)(F)F)c2)cc1-c1cc2cnc(N)nc2c(-c2ccnc(N3CCCC3=O)c2)c1O [Compound 179, 2-Amino-7-hydroxy-6-[2-methyl-5-N-(3-trifluoromethylphenyl)carbamoylphenyl]-8-[2-(2-oxopyrrolidin-1-yl)pyridin-4-yl]quinazoline]
≤ 20 nM | ≥ 20 | Cc1cc(-c2c(O)c(-c3cc(C(=O)Nc4cccc(C(F)(F)F)c4)ccc3C)cc3cnc(NC(=O)C4CC4)nc23)ccn1 [Compound 186, 2-Cyclopropylcarbonylamino-7-hydroxy-8-(2-methylpyriclin-4-yl)-6-[2-methyl-5-N-(3-trifluoromethylphenyl)carbamoylphenyl]quinazoline]
≤ 20 nM | ≥ 20 | COC(=O)Nc1ncc2cc(-c3cc(C(=O)Nc4cccc(C(F)(F)F)c4)ccc3C)c(O)c(-c3ccnc(C)c3)c2n1 [Compound 199, 7-Hydroxy-2-methoxycarbonylamino-8-(2-methylpyridin-4-yl)-6-[2-methyl-5-N-(3-trifluoromethylphenyl)carbamoylphenyl]quinazoline]
≤ 20 nM | ≥ 20 | Cc1ccc(C(=O)Nc2cccc(C(F)(F)F)c2)cc1-c1cc2cnc(NC3CCOCC3)nc2c(-c2ccc(F)cc2)c1O [Compound 218, 8-(4-Fluorophenyl)-7-hydroxy-6-[2-methyl-5-N-(3-trifluoromethylphenyl)carbamoylphenyl]-2-(4-tetrahydropyranylamino)quinazoline]
≤ 20 nM | ≥ 20 | Cc1ccc(C(=O)Nc2cc(C(F)(F)F)ccn2)cc1-c1cc2cnc(NC(C)C)nc2c(-c2ccc(F)nc2)c1O [Compound 226, 8-(2-Fluoropyridin-5-yl)-7-hydroxy-2-isopropylamino-6-[2-methyl-5-N-(4-trifluoromethylpyridin-2-yl)carbamoylphenyl]quinazoline]
